Here are results for 15 compounds from PubChem BioAssay AID248 (DTP/NCI, 2004).

The subject of this experiment is L1210 leukemia ip in BDF1 mice, survival T/C. The experiment can be described thus: NCI In Vivo Anticancer Drug Screen. Data for tumor model L1210 Leukemia (intraperitoneal) in B6D2F1 (BDF1) mice. To be noted: T/C endpoint: mean survival time, higher T/C = longer survival.
Where [1] appears, read: dose: 20.0 mg/kg/injection, schedule: Q01DX001 (ip), vehicle: carboxymethylcellulose (CMC).
[2] abbreviates: dose: 40.0 mg/kg/injection, schedule: Q01DX001 (ip), vehicle: carboxymethylcellulose (CMC).
The mark [3] stands for this setting: dose: 80.0 mg/kg/injection, schedule: Q01DX001 (ip), vehicle: carboxymethylcellulose (CMC).
Where [4] appears, read: dose: 300.0 mg/kg/injection, schedule: Q01DX001 (ip), vehicle: saline.
Where [5] appears, read: dose: 40.0 mg/kg/injection, schedule: Q01DX001 (ip), vehicle: saline.
The mark [6] stands for this setting: dose: 200.0 mg/kg/injection, schedule: Q04DX003 (ip), vehicle: Klucel (hydroxypropylcellulose) (HPC).

The structures appear in SMILES notation. The list shows only some results of the screen, not a fair sample: it gathers tests that were run many times, whatever their T/C, doses with no T/C, and many T/C values between a quarter and a half above the control. Other doses and runs of a compound stand elsewhere. T/C: endpoint of the treated group in % of that of the vehicle group. Some doses have a count of surviving animals in place of a T/C: the source files T/C as zero there, which appears to mark a toxic dose or a test without result, not a measured value. Some doses without a T/C left all or most animals alive at the check, yet need not have been tolerated: survival well below the control is almost never listed, so the zero probably covers shortened survival too. Survivors were counted at the toxicity check, usually on the fifth day, unless a day is given; later deaths do not show. Schedules are NCI's codes, read here as Q, the interval in days (D) or hours (H), X, the number of doses. Some entries were tested several times; the values are given in rising order. Some schedules carry Z or #; the key to these is not given. Where survival is the endpoint, the PubChem record calls one and a half times the control and up active, and a quarter to a half above the control has no call in these data; cut-offs in other NCI protocols can differ. Some T/C values are followed by the survivors on the day toxicity was checked, most often the fifth; where none is given, no animal had died by that day.

For `COC(=O)c1[nH]cnc1/N=N\N(CCF)CCF`, the T/C is 130 % of control [5 of 6 alive] (dose: 6.0 mg/kg/injection, schedule: Q01DX009 (ip), vehicle: carboxymethylcellulose (CMC)); 133 % of control (dose: 8.4 mg/kg/injection, schedule: Q01DX009 (ip), vehicle: carboxymethylcellulose (CMC)); 146 % of control (dose: 12.0 mg/kg/injection, schedule: Q01DX009 (ip), vehicle: carboxymethylcellulose (CMC)); 125 % of control (dose: 18.0 mg/kg/injection, schedule: Q01DX001 (ip), vehicle: carboxymethylcellulose (CMC)); 126 % of control under setting [1]; 145 % of control (dose: 24.0 mg/kg/injection, schedule: Q01DX009 (ip), vehicle: carboxymethylcellulose (CMC)). In addition, the T/C is, setting by setting: (dose: 35.0 mg/kg/injection, schedule: Q01DX001 (ip), vehicle: carboxymethylcellulose (CMC), evaluated on day 30) 127 % of control; (dose: 35.0 mg/kg/injection, schedule: Q01DX001 (ip), vehicle: carboxymethylcellulose (CMC), run until all animals had died) 137 % of control; (dose: 36.0 mg/kg/injection, schedule: Q01DX001 (ip), vehicle: carboxymethylcellulose (CMC)) 137 % of control; under setting [2], 149 % of control. The survivor count by setting is: (dose: 27.0 mg/kg/injection, schedule: Q01DX009 (ip), vehicle: carboxymethylcellulose (CMC)) 6 of 6; (dose: 40.0 mg/kg/injection, schedule: Q01DX009 (ip), vehicle: carboxymethylcellulose (CMC)) 4 of 6; (dose: 53.0 mg/kg/injection, schedule: Q01DX001 (ip), vehicle: carboxymethylcellulose (CMC)) 3 of 6; under setting [3], 0 of 6 and 2 of 6; (dose: 120.0 mg/kg/injection, schedule: Q01DX001 (ip), vehicle: carboxymethylcellulose (CMC)) 0 of 5 and 0 of 6.

In the case of `C=C(C)COC(OCC(=C)C)C(C)C`, the survivor count (dose: 400.0 mg/kg/injection, schedule: Q01DX009 (ip), vehicle: Klucel (hydroxypropylcellulose) (HPC)) is on record as 3 of 3.

Turning to `O=[N+]([O-])CC(O)c1ccc2ccccc2n1` (stereo unspecified), the survivor count reads like this: (dose: 400.0 mg/kg/injection, schedule: Q01DX009 (ip), vehicle: saline) 0 of 6; (dose: 400.0 mg/kg/injection, schedule: Q04DX003 (ip), vehicle: saline) 5 of 6.

Turning to `NC1=NC(c2ccc(Cl)cc2)N(c2ccc(S(N)(=O)=O)cc2)C(N)=N1` (stereo unspecified), the survivor count under setting [4] is recorded as 0 of 6.

As for `N#CCCCC1(CCCC#N)OCCO1`, the survivor count (dose: 100.0 mg/kg/injection, schedule: Q01DX009 (ip), vehicle: saline) is recorded as 6 of 6.

Turning to `COC(=O)/C=C/CBr`, the survivor count by setting is: under setting [1], 0 of 4; under setting [2], 0 of 4; (dose: 64.0 mg/kg/injection, schedule: Q01DX015 (ip), vehicle: carboxymethylcellulose (CMC)) 0 of 6; under setting [3], 0 of 4.

Turning to `CC(C)(C)C1COC(=O)C1` (stereo unspecified), the survivor count is 1 of 6 under setting [5]; 0 of 6 (dose: 75.0 mg/kg/injection, schedule: Q01DX001 (ip), vehicle: acetone); 0 of 6 (dose: 150.0 mg/kg/injection, schedule: Q01DX001 (ip), vehicle: acetone); 1 of 6 (dose: 300.0 mg/kg/injection, schedule: Q01DX001 (ip), vehicle: acetone).

As for `COc1cc(OC)c(OC)cc1/C=C\c1ccnc2ccccc12`, the survivor count (dose: 3200.0 mg/kg/injection, schedule: Q04DX003 (ip), vehicle: Klucel (hydroxypropylcellulose) (HPC)) is 3 of 6.

For `O=C1C[C@@H]2OCC=C3C[N+]4([O-])CC[C@]56c7ccccc7N1[C@H]5[C@H]2[C@H]3C[C@@H]64` (stereo partly specified), the survivor count is recorded as 3 of 6 (dose: 75.0 mg/kg/injection, schedule: Q01DX001 (ip), vehicle: saline) and 0 of 6 under setting [4].

Take `CC1(O)C=CCC1` (stereo unspecified): for the setting “dose: 300.0 mg/kg/injection, schedule: Q01DX001 (ip), vehicle: carboxymethylcellulose (CMC)”, the survivor count is recorded as 2 of 6.

Take `O=C([O-])C(=O)[O-].[Cu+2].[OH2+]CC[N-]CC[OH2+].[OH2+]CC[N-]CC[OH2+]`: the survivor count under setting [5] is 2 of 4; the survivor count (dose: 50.0 mg/kg/injection, schedule: Q01DX001 (ip), vehicle: carboxymethylcellulose (CMC)) is 0 of 4; the survivor count (dose: 80.0 mg/kg/injection, schedule: Q01DX001 (ip), vehicle: saline) is listed as 0 of 4; the survivor count (dose: 100.0 mg/kg/injection, schedule: Q01DX001 (ip), vehicle: carboxymethylcellulose (CMC)) is recorded as 0 of 4; the survivor count (dose: 200.0 mg/kg/injection, schedule: Q01DX001 (ip), vehicle: carboxymethylcellulose (CMC)) is listed as 0 of 4; the survivor count (dose: 400.0 mg/kg/injection, schedule: Q01DX001 (ip), vehicle: carboxymethylcellulose (CMC)) is recorded as 0 of 4.

For `COc1ccccc1C(=O)OCC(=O)c1ccc(-c2ccccc2)cc1`, for the setting “dose: 100.0 mg/kg/injection, schedule: Q01DX001 (ip), vehicle: saline”, the survivor count is reported as 4 of 4.

Consider `O=C(Nc1ccc(C2=NCCN2)cc1)c1ccc(NC(=O)c2ccc(C3=NCCN3)cc2)cc1`, for which the T/C by setting is: (dose: 15.0 mg/kg/injection, schedule: Q01DX009 (ip), vehicle: saline) 142 % of control; (dose: 15.0 mg/kg/injection, schedule: Q01DX Z (ip), vehicle: carboxymethylcellulose (CMC)) 146 % of control; (dose: 15.0 mg/kg/injection, schedule: Q01DX Z (ip), vehicle: saline) 131 % of control; (dose: 30.0 mg/kg/injection, schedule: Q01DX009 (ip), vehicle: saline) 131 % of control; (dose: 60.0 mg/kg/injection, schedule: Q01DX Z (ip), vehicle: carboxymethylcellulose (CMC)) 146 % of control; (dose: 120.0 mg/kg/injection, schedule: Q01DX009 (ip), vehicle: saline) 134 % of control. Further, for the setting “dose: 120.0 mg/kg/injection, schedule: Q01DX Z (ip), vehicle: carboxymethylcellulose (CMC)”, the survivor count was 3 of 6.

In the case of `CN(C)c1ccc(/C=C/c2ccc3ccccc3[n+]2C)cc1`, the survivor count reads like this: (dose: 6.0 mg/kg/injection, schedule: Q01DX009 (ip), vehicle: Klucel (hydroxypropylcellulose) (HPC)) 3 of 6; (dose: 12.5 mg/kg/injection, schedule: Q01DX009 (ip), vehicle: Klucel (hydroxypropylcellulose) (HPC)) 0 of 6; (dose: 25.0 mg/kg/injection, schedule: Q01DX009 (ip), vehicle: Klucel (hydroxypropylcellulose) (HPC)) 0 of 6; (dose: 25.0 mg/kg/injection, schedule: Q04DX003 (ip), vehicle: Klucel (hydroxypropylcellulose) (HPC)) 3 of 6; (dose: 50.0 mg/kg/injection, schedule: Q01DX009 (ip), vehicle: Klucel (hydroxypropylcellulose) (HPC)) 0 of 6; (dose: 50.0 mg/kg/injection, schedule: Q04DX003 (ip), vehicle: Klucel (hydroxypropylcellulose) (HPC)) 0 of 6. Moreover, the survivor count (dose: 75.0 mg/kg/injection, schedule: Q01DX009 (ip), vehicle: Klucel (hydroxypropylcellulose) (HPC)) is 0 of 6; the survivor count (dose: 100.0 mg/kg/injection, schedule: Q04DX003 (ip), vehicle: Klucel (hydroxypropylcellulose) (HPC)) was 0 of 6; the survivor count (dose: 150.0 mg/kg/injection, schedule: Q01DX009 (ip), vehicle: Klucel (hydroxypropylcellulose) (HPC)) is reported as 0 of 6; the survivor count under setting [6] is listed as 0 of 6; the survivor count (dose: 400.0 mg/kg/injection, schedule: Q01DX001 (ip), vehicle: saline) is recorded as 0 of 6.

For the compound `CCCCCCCCCCCCCC[N+](C)(C)Cc1cc(=O)c(O)co1`, the survivor count is 2 of 6 (dose: 200.0 mg/kg/injection, schedule: Q01DX015 (ip), vehicle: saline); 1 of 3 under setting [6]; 0 of 6 (dose: 400.0 mg/kg/injection, schedule: Q01DX015 (ip), vehicle: saline); 0 of 3 (dose: 400.0 mg/kg/injection, schedule: Q04DX003 (ip), vehicle: Klucel (hydroxypropylcellulose) (HPC)).
